Laboratory results published in the supplement of paper PMC10735217.
Counter-ions that a name gives are not always drawn. The list shows a part of the results. Single values are uncertain here, since repeats match poorly.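 Human kidney-derived cells stably carry a construct in which eight TEAD-binding elements drive luciferase, measured by luminescence in a drug-repurposing library screen. A hit is any compound whose signal exceeds the plate mean by more than five robust Z scores.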

System: HEK293A TEAD-LUC reporter
Test: TEAD-luciferase reporter activity (YAP activation), robust Z score vs plate; higher = stronger YAP/TEAD activation
Details: 24 h

| Compound | TEAD-luciferase reporter activity (compound concentration: 2 uM) | TEAD-luciferase reporter activity (compound concentration: 200 nM) | TEAD-luciferase reporter activity (compound concentration: 10 uM) |
| --- | --- | --- | --- |
| CCCCCCCC(=O)OCC(O)CO (stereo not given) [Monoctanoin] | inactive: -0.331 |  |  |
| CCCCCCCC(=O)OCC(O)CO (stereo not given) |  | inactive: 2.37 | inactive: -0.45 |
| CCNC(=O)[C@H]1C[C@@H](n2cnc3c(N[C@H](CC)Cc4sccc4Cl)ccnc32)[C@H](O)[C@@H]1O | inactive: -0.24 | inactive: 0.91 | inactive: 0.151 |
| O=C(OC(CCN1CCCCC1)c1ccccc1)c1ccccc1 (stereo not given) | inactive: 3.03 | inactive: 2.4 | inactive: 0.86 |
| COC(CCN(C)C)(c1ccccc1)c1ccccc1 | inactive: 1.87 | inactive: -1.04 | inactive: 0.581 |
| Cc1cccc(N2CCN(CCCCN3C(=O)CNC3=O)CC2)c1 | inactive: -1.82 | inactive: -0.0312 | inactive: -0.376 |
| CN(C)CC(=O)N1Cc2ccccc2CC2(CCCCN2C)C1 (stereo not given) |  | inactive: 0.159 | inactive: 1.56 |
| CC(C)(OCc1ccc(-c2ccc(Cl)cc2)cc1)C(=O)O [clobuzarit] | inactive: -1.1 | inactive: -0.184 | inactive: 1.16 |
| COc1ccccc1N1CCN(CCCCn2c(=O)sc3cc(CCN4CCC(C(=O)c5ccc(F)cc5)CC4)ccc32)CC1 | inactive: 0.0102 | inactive: -2.11 | inactive: 2.6 |
| N#Cc1cc(Cl)cc(Oc2c(Cl)ccc3c2cnn3Cc2n[nH]c3ncccc23)c1 | inactive: -0.367 | inactive: 0.594 | inactive: 0.378 |
| C[C@H]1Cc2c([nH]c3cc(Cl)c(F)cc23)[C@@]2(N1)C(=O)Nc1ccc(Cl)cc12 | inactive: -0.108 | inactive: -0.697 | inactive: -1.4 |
| CCNCCCNCCCNCCCNCC | inactive: -1.85 | inactive: 1.44 | inactive: 3.33 |
| Oc1cccc(O)c1O | inactive: -2.22 | inactive: -0.824 | inactive: 0.311 |
| CCN(CC)CCCCC(NC(=O)c1ccc([N+](=O)[O-])cc1)c1ccccc1 (stereo not given) [Nibentan] | inactive: 1.56 | inactive: -1.37 | inactive: 0.218 |
| Cc1ccc(Sc2ccccc2N2CCNCC2)c(C)c1 [Vortioxetine hydrobromide] | inactive: -0.453 | inactive: 0.185 | inactive: -0.933 |
| CCCCCNC(=N)Nc1nc(-c2c[nH]c(C)n2)cs1 | inactive: -1.44 | inactive: -0.842 | active: 6.4 |
| CNCc1nc2c([nH]1)c(=O)n(C)c(=O)n2CC(C)C | inactive: -1.47 | inactive: 2.35 | inactive: -0.632 |
| CCCCN1CCCC1C(=O)Nc1c(C)cc(C)cc1C (stereo not given) | inactive: -2.43 | inactive: 0.992 | inactive: -0.716 |
| CN1C(C(=O)Nc2ccccn2)=C(O)c2ccccc2S1(=O)=O [Piroxicam] |  | inactive: -2.8 | inactive: -0.047 |
| CN1C(C(=O)Nc2ccccn2)=C(O)c2ccccc2S1(=O)=O [piroxicam olamine] | inactive: -0.0997 |  |  |

| Compound | TEAD-luciferase reporter activity (compound concentration: 2 uM) | TEAD-luciferase reporter activity (compound concentration: 200 nM) | TEAD-luciferase reporter activity (compound concentration: 10 uM) |
| --- | --- | --- | --- |
| CN1CCN(C2CCN(C(=O)Nc3cc(Oc4ccc(NC(=O)C5(C(=O)Nc6ccc(F)cc6)CC5)c(F)c4)ccn3)CC2)CC1 [golvatinib] | inactive: -2.62 | inactive: -1.56 |  |
| OC(CCN1CCCCC1)(c1ccccc1)C1CCCCC1 (stereo not given) | inactive: 0.141 | inactive: -0.286 | inactive: 0.489 |
| Cc1nc2ccc(-n3ncc(C(=O)c4cc5ccccc5[nH]4)c3N)cc2[nH]1 | inactive: -1.46 | inactive: 1.7 | inactive: 0.059 |
| COC1=C(OC)C(=O)C(CCCCCCCCCCO)=C(C)C1=O [idebe] | inactive: -0.862 |  |  |
| COC1=C(OC)C(=O)C(CCCCCCCCCCO)=C(C)C1=O |  | inactive: -0.279 | inactive: -0.812 |
| Cc1ccc(C(=O)NC2CC2)cc1NC(=O)c1cnn(-c2ncccc2C(F)(F)F)c1C | inactive: -0.854 | inactive: -0.557 | inactive: 0.0569 |
| COc1cc(C(=O)Nc2ccccc2CCC2CCCCN2C)ccc1O (stereo not given) | inactive: -0.745 | inactive: -0.522 | inactive: -0.592 |
| CCC(=O)O[C@]1(C(=O)SC)[C@H](C)C[C@H]2[C@@H]3C[C@H](F)C4=CC(=O)C=CC4(C)[C@@]3(F)[C@@H](O)CC21C (stereo not given in full) [ticabesone propionate] | inactive: -0.411 | inactive: 0.0192 | inactive: 0.839 |
| CCCN(CCC)C(=O)C(Cc1ccc(OCCCN2CCN(C)CC2)cc1)NC(=O)c1ccc(Br)cc1 (stereo not given) | inactive: -0.492 | inactive: -0.289 | inactive: 0.215 |
| O=C1N=C(N2CCCC2)CN1c1ccccc1 | inactive: 1.42 | inactive: -0.917 | inactive: -1.41 |
| CCCCC(=O)OCC(=O)[C@]1(O)Cc2c(O)c3c(c(O)c2[C@@H](O[C@H]2C[C@H](NC(=O)C(F)(F)F)[C@H](O)[C@H](C)O2)C1)C(=O)c1c(OC)cccc1C3=O [Valrubicin] | inactive: -0.516 | inactive: 0.232 | inactive: 2.28 |
| O=C1CCCSc2ccc(Cl)cc21 | inactive: -1.12 | inactive: -0.777 | inactive: 0.623 |
| CCN(CC)CCOC(c1ccccc1)c1ccccc1 | inactive: 0.138 | inactive: -0.763 | inactive: 0.604 |
| CN(C)CCN(C)C1COc2ccccc2-c2c(C3CCCCC3)c3ccc(C(=O)O)cc3n2C1 (stereo not given) | inactive: 0.0543 | inactive: -0.782 | inactive: 0.829 |
| CCCCc1cc(C(=O)O)cc(OCc2ccc(-c3ccccc3-c3nnn[nH]3)cc2F)n1 | inactive: -1.58 | inactive: -0.269 | inactive: 1.43 |
| Cc1ccc(-c2nc3c(O)cccc3s2)cc1 | inactive: 0.585 | inactive: -0.597 | inactive: -0.541 |
| O=c1sn(-c2cccc3ccccc23)c(=O)n1Cc1ccccc1 [Tideglusib] | inactive: 1.09 | inactive: -0.875 | inactive: 3.14 |
| COc1cc(C=CC(=O)N2CCN(CC(=O)NC(C)C)CC2)cc(OC)c1OC | inactive: -1.35 | inactive: -0.0729 | inactive: -1.19 |
| CC(=O)OCC(=O)[C@@]1(O)[C@H](C)CC2[C@@H]3CC[C@H]4CC(=O)CC[C@]4(C)C3=CC[C@@]21C (stereo not given in full) | inactive: -1.88 | inactive: -1.1 | inactive: -0.449 |
| COc1ccccc1OCC(O)CN1CCN(CC(=O)Nc2c(C)cccc2C)CC1 (stereo not given) [Ranolazine dihydrochloride] |  | inactive: -0.194 | inactive: -0.422 |

| Compound | TEAD-luciferase reporter activity (compound concentration: 2 uM) | TEAD-luciferase reporter activity (compound concentration: 200 nM) | TEAD-luciferase reporter activity (compound concentration: 10 uM) |
| --- | --- | --- | --- |
| COc1ccccc1OCC(O)CN1CCN(CC(=O)Nc2c(C)cccc2C)CC1 (stereo not given) [ranolazine] | inactive: -1.05 |  |  |
| CC(C)(C)NC(=O)Nc1nc2nc(Nc3ccc4nsnc4c3)ncc2cc1-c1c(Cl)cccc1Cl | inactive: -2.14 | inactive: -0.821 | inactive: -0.288 |
| O=C1C(CCS(=O)c2ccccc2)C(=O)N(c2ccccc2)N1c1ccccc1 (stereo not given) [Sulfinpyrazone] |  | inactive: 0.702 | inactive: -1.69 |
| O=C1C(CCS(=O)c2ccccc2)C(=O)N(c2ccccc2)N1c1ccccc1 (stereo not given) [sulfinpyrazone] | inactive: -0.32 |  |  |
| COc1ccccc1N1CCN(C(=O)c2cccc3ccccc23)CC1 | inactive: -0.554 | inactive: 0.769 | active: 15.3 |
| CC(C)CCN1CCCC12Cc1ccccc1CNC2=O (stereo not given) |  | active: 5.06 | active: 5.33 |
| CCCCOc1cc(C(=O)OCCN(CC)CC)ccc1N [Oxybuprocaine hydrochloride] | inactive: -0.924 | inactive: -0.379 | inactive: 1.29 |
| O=C(O)c1ccccc1O [salicylic acid, Orenova] | inactive: 0.15 | inactive: -0.545 | inactive: -0.183 |
| O=C(O)c1ccccc1O [salicylic acid] | inactive: 1.2 |  |  |
| COc1ccc(C=Cc2cc(OC)c(OC)c(OC)c2)cc1O [Combretastatin A-4] | inactive: 1.4 | inactive: 1.49 | inactive: 2.41 |
| NCCCS(=O)(=O)O [Tramiprosate] | inactive: 0.367 | inactive: 0.794 | inactive: 1.08 |
| CCC[C@@H]1C[C@@H](C(=O)N[C@@H]([C@H]2O[C@H](SC)[C@H](O)[C@@H](O)[C@H]2O)[C@H](C)Cl)N(C)C1 [Clindamycin hydrochloride] | inactive: 0.945 |  |  |
| COc1ccc2[nH]cc(CCNC(C)=O)c2c1 [melatonin, Alliance] | inactive: -1.22 | inactive: -0.264 | inactive: 0.126 |
| C[n+]1cccc(C(=O)O)c1 |  | inactive: -1.44 | inactive: -1.59 |
| C[n+]1cccc(C(=O)O)c1 [Trigonelline] | inactive: -2.04 |  |  |
| CC(=O)Oc1ccccc1C(=O)Oc1cccc(CO[N+](=O)[O-])c1 | inactive: -0.23 | inactive: -0.231 | inactive: 0.188 |
| CC(C)c1c(C(=O)Nc2ccccc2)c(-c2ccccc2)c(-c2ccc(F)cc2)n1CC[C@@H](O)C[C@@H](O)CC(=O)O [Atorvastatin calcium] | inactive: 0.0899 | inactive: -0.38 | inactive: 1.23 |
| COc1cc2nc(N3CCN(C(=O)[C@@H](C)OC)CC3)nc(N)c2cc1OC [metazosin] | inactive: 0.22 | inactive: 0.148 | inactive: 0.966 |
| CN(C)CCCCNc1c2ccccc2nc2cccc([N+](=O)[O-])c12 | inactive: 0.501 | inactive: 0.0385 | inactive: 0.697 |
| CCn1c(-c2ccc(OC)c(OC)c2)c/c(=N\c2c(C)cc(C)cc2C)n(C)c1=O | inactive: -0.272 | inactive: -0.148 | inactive: -1.74 |

Part of the list above, bar-delimited:
Compound | TEAD-luciferase reporter activity (compound concentration: 2 uM) | TEAD-luciferase reporter activity (compound concentration: 200 nM) | TEAD-luciferase reporter activity (compound concentration: 10 uM)
O=C(O)c1ccccc1O [salicylic acid, Orenova] | inactive: 0.15 | inactive: -0.545 | inactive: -0.183
O=C(O)c1ccccc1O [salicylic acid] | inactive: 1.2 |  | 
COc1ccc(C=Cc2cc(OC)c(OC)c(OC)c2)cc1O [Combretastatin A-4] | inactive: 1.4 | inactive: 1.49 | inactive: 2.41
NCCCS(=O)(=O)O [Tramiprosate] | inactive: 0.367 | inactive: 0.794 | inactive: 1.08
